# Among all 320,000 compounds or so, about 740 (0.23%) were called active. The shares of active, inactive and inconclusive entries below differ from those in the screen. Calls come from the whole dose curve; as a rule, active = well fitted activation curve with a large enough effect; inconclusive = small, poorly fitted or top-dose-only effect; inactive = no such curve, though single readings can be large or run the other way. Potencies beside an inconclusive call are fits to weak or partial responses and may not hold up.
# Assay: qHTS Assay for Small Molecule Inhibitors of Mitochondrial Division or Activators of Mitochondrial Fusion; note: nearly all actives have a fitted effect of over 45% in size
# Settings: S. cerevisiae fusion-defective mutant growth rescue, CellTiterGlo 48 h; series mostly up to 46.1 µM
# From the text: NIH Chemical Genomics Center [NCGC] NIH Molecular Libraries Probe Production centers Network [MLPCN] MLPCN Grant: MH081279-01 Assay Submitter (PI): Jodi M. Nunnari NCGC Assay Overview: The budding yeast S. cerevisiae is a powerful system to study mitochondrial fusion. Unlike other organisms, yeast cells without functional mitochondrial DNA (mtDNA) can be propagated and studied as long as they maintain a mitochondrial compartment and are provided with a fermentable carbon source. When mitochondrial fusion is blocked in yeast, mitochondrial tubules rapidly fragment and division continues unopposed. Under conditions where fusion is compromised in mammalian cells, nearly identical changes in mitochondrial structure have been observed. Thus, these findings indicate that steady state mitochondrial structure in cells is a characteristic and specific indicator of fusion activity. Mounting evidence has pointed to a connection between mitochondrial dynamics and apoptosis in mammalian cells. These studies indicate that in mammalian cells mitochondrial dynamics are more integrated into cellular processes than in yeast cells and have evolved not only to distribute the organelle but also to aid in the regulation of cellular homeostasis. Mitochondrial fusion proteins attenuate apoptosis by inhibiting the release of cytochrome c from mitochondria, in part by controlling cristae structures. Thus, small molecules that inhibit mitochondrial […] may promote apoptosis and potentially act as novel chemotherapeutics and stimulation of apoptosis has become an attractive target of anti-cancer therapies. To identify inhibitors of mitochondrial division, we exploit the growth phenotypes of mitochondrial fusion-defective mutants. The temperature sensitive fusion alleles, such as fzo1-1 and mgm1-5, cause mitochondrial membranes to fragment in cells under non-permissive conditions and cells lose mtDNA, and are unable to grow in the presence of non-fermentable carbon source glycerol. Inhibiting mitochondrial division rescues growth. We have developed and optimized a luminescence cell viability assay in 1536 well format for the identification of inhibitors in the yeast mitochondrial fusion-defective assay.
# The yeast glycerol stocks where kindly supplied by the laboratory of Dr. Jodi Nunnari, University of California, Davis. All yeast glycerol stock solutions were stored in single use aliquots at -80C. The CellTiterGlo luminescence reagent, containing luciferase and luciferin, were purchased from Promega, and the reagents were stored according to manufacturer's instructions. The Buffer components for the YPEG yeast growth medium were purchased from Sigma-Aldrich (St. Louis, MO). YPEG growth medium: 1% (w/v) yeast extract, 2% (w/v) Bacto-peptone, 3% Ethanol, 3% glycerol, 0.4mM Tryptophan, 0.36mM Adenine. qHTS Assay Protocol: 1.#Dispense 2.5 ul yeast growth medium per 1536 well plate. 2.#Transfer 23 nl per well of compound to plate. 3.#Dispense 2.5 ul yeast solution at appropriate seeding density per well. 4.#Incubate for 48 hours at 37C. 5.#Dispense 5 ul of CellTiterGlow solution per well. 6.#Incubate at ambient for 10 minutes. 7.#Read using bio-luminescence protocol on Viewlux.
# Potency is the fitted concentration of half-maximal effect.
row,Structure (SMILES),Potency
1,CCn1c(=O)c(CCC(=O)N2CCOCC2)c(C)c2c(C)nn(-c3ccccc3)c21,"inconclusive: 17.8 µM [activator, single point]"
2,CCOC(=O)C1(Cc2ccccc2)CCCN(CCO)C1 (stereo not drawn),inactive
3,COc1ccc(N2CCN(C(=O)c3cc4cc(Cl)ccc4[nH]3)CC2)cc1,"inconclusive: 12.6 µM [activator, partial curve]"
4,CN(c1ccccc1)S(=O)(=O)c1cccc(NC(=O)Cc2c(F)cccc2Cl)c1,"inconclusive: 28.2 µM [activator, single point]"
5,CN(C)C(=O)C(CCN1CCC(O)(c2ccc(Cl)cc2)CC1)(c1ccccc1)c1ccccc1,"inconclusive: 23.1 µM [activator, partial curve]"
6,O=C1NN=C(c2ccc(Cl)cc2)CC1c1c[nH]c2ccccc12 (stereo not drawn),"inconclusive: 20 µM [activator, single point]"
7,Cc1c(-n2cc(C(=O)O)c(=O)c3cc(F)c(N4CCCC(O)C4)c(F)c32)c(=O)n(-c2ccccc2)n1C (stereo not drawn),inactive
8,Cc1ccccc1NC(=O)CCCNC(=O)c1ccc(Cl)cc1,"inconclusive: 0.562 µM [activator, partial curve, poor fit]"
9,CN(C(=O)COC(=O)c1ccccc1NC(=O)c1ccco1)C1CCS(=O)(=O)C1 (stereo not drawn),inactive
10,COc1ccc(-c2nc(-c3cccs3)c(-c3cccs3)[nH]2)cc1O,"inconclusive: 25.1 µM [activator, single point]"
11,O=S(=O)(Nc1nc2ccccc2nc1Cl)c1ccccc1,inactive
12,CCOc1ccc(-c2n[nH]c(C(=O)NN)c2C)cc1,"inconclusive: 35.5 µM [activator, single point]"
13,CCOC(=O)CNC(=O)c1cnn2cccnc12,"inconclusive: 4.47 µM [activator, partial curve]"
14,COCCCNC(=O)CSc1nc2c(sc3ccccc32)c(=O)n1CCCC(=O)NCC1CCCO1 (stereo not drawn),"inconclusive: 6.31 µM [activator, partial curve]"
15,Cc1onc(-c2ccccc2)c1C(=O)N/N=C/c1ccc([N+](=O)[O-])s1,active: 11.2 µM
16,COC(=O)c1c(NC(=O)C2COc3ccccc3O2)sc2c1CCN(C(C)=O)C2 (stereo not drawn),"inconclusive: 35.5 µM [activator, single point]"
17,CC(C)(C)NC(=O)c1ccccc1-c1nc(-c2ccccc2Cl)no1,"inconclusive: 12.6 µM [activator, partial curve]"
18,CCOC(=O)COc1cc(-n2c(=S)[nH]c3cc(OC)c(OC)cc3c2=O)c(Cl)cc1Cl,inactive
19,Cc1[nH]n(-c2ccccc2)c(=O)c1C(=O)c1cccc(F)c1,inactive
20,Cc1ccc(C)c(NC(=O)c2oc(=O)c3ccccc3c2-c2ccccc2)c1,"inconclusive: 15.8 µM [activator, partial curve]"
21,O=C1/C(=C\c2ccc(O)c(O)c2)SC(=S)N1Cc1ccccc1,active: 12.6 µM
22,O=C(/C=C/c1ccncc1)c1ccc(NC(=O)c2ccccc2F)cc1,"inconclusive: 35.5 µM [activator, single point]"
23,O=[N+]([O-])c1ccc(/C=N/Nc2ccccn2)cc1,inactive
24,O=C1Nc2ccccc2/C1=C\c1cccn1-c1ccc(OC(F)(F)F)cc1,"inconclusive: 8.91 µM [activator, partial curve]"
25,O=C(NCc1ccccc1Cl)c1cnc2n(c1=O)CCS2,inactive

# 3 entries from above, with tabs:
row	Structure (SMILES)	Potency
17	CC(C)(C)NC(=O)c1ccccc1-c1nc(-c2ccccc2Cl)no1	inconclusive: 12.6 µM [activator, partial curve]
18	CCOC(=O)COc1cc(-n2c(=S)[nH]c3cc(OC)c(OC)cc3c2=O)c(Cl)cc1Cl	inactive
19	Cc1[nH]n(-c2ccccc2)c(=O)c1C(=O)c1cccc(F)c1	inactive

# Further structures:

row,Structure (SMILES),Potency
1,CCC1(C)Cc2ccccc2-c2nc(NN)[nH]c(=O)c21 (stereo not drawn),"inconclusive: 20 µM [activator, partial curve, poor fit]"
2,CC(c1ccccc1)c1nnc(NC(=O)Nc2ccccc2F)s1 (stereo not drawn),"inconclusive: 3.55 µM [activator, full curve, poor fit]"
3,COc1ccc(COC(=O)N/C=C/c2ccco2)cc1,"inconclusive: 20 µM [activator, single point]"
4,Cc1ccc(OCc2nnc(SC3CCc4ccccc4C3=O)n2C)cc1 (stereo not drawn),"inconclusive: 11.2 µM [activator, partial curve]"
5,CC(C)CC(NC(=O)OC(C)(C)C)c1cn([C@@H](CCCCNC(=O)OC(C)(C)C)C(=O)N2CCN(C(=O)OC(C)(C)C)CC2)nn1 (stereo partly drawn),inactive
6,Cc1c(C(=O)NCCC2=CCCCC2)oc2ccc(S(=O)(=O)N3CCOCC3)cc12,"inconclusive: 20 µM [activator, partial curve]"
7,c1ccc2nc3c(nc2c1)[nH]c1ccccc13,inactive
8,COc1cc(CNn2c(C)n[nH]c2=S)cc(Br)c1OCc1ccc(F)cc1,"inconclusive: 35.5 µM [activator, single point]"
9,Cc1noc(C)c1CSc1ccccc1C(=O)Nc1nccs1,active: 35.5 µM
10,O=c1cc2c(nn1Cc1ccccc1Cl)-c1ccccc1CC2,active: 20 µM
11,N#Cc1c(NC(NC(=O)c2ccco2)C(=O)c2ccccc2)sc2c1CCCC2 (stereo not drawn),active: 12.6 µM
12,CC(Sc1nn(-c2ccc(F)cc2)c(=S)s1)C(=O)c1c(N)n(C)c(=O)n(C)c1=O (stereo not drawn),"inconclusive: 12.6 µM [activator, partial curve]"
13,COc1ccc2c(c1OC)C(=O)O[C@@H]2[C@H]1c2c(cc3c(c2OC)OCO3)CCN1C,"inconclusive: 23.1 µM [activator, single point]"
14,CN(C)CC(C(=O)c1ccccc1)c1ccccc1 (stereo not drawn),inactive
15,CC(OC(=O)c1ccccc1CCc1ccccc1)C(N)=O (stereo not drawn),"inconclusive: 14.1 µM [activator, partial curve]"
16,N#Cc1nc(-c2cccs2)oc1NCc1ccc(Cl)cc1,"inconclusive: 17.8 µM [activator, single point]"
17,COc1ccc(-c2cc(-c3ccccc3)n3ncnc3n2)cc1,inactive
18,C/C=C(\C)C(=O)OC1c2c(ccc3ccc(=O)oc23)OC(C)(C)C1OC(C)=O (stereo not drawn),"inconclusive: 11.2 µM [activator, partial curve]"
19,O=C(O)/C=C/c1ccc([N+](=O)[O-])o1,inactive
20,Cn1nnnc1Sc1ncnc2scc(-c3ccc(F)cc3)c12,active: 0.794 µM
21,COc1ccccc1-c1nc(-c2ccncc2)no1,inactive
22,Cn1c(CNC(=O)CNS(=O)(=O)c2ccccc2)cc(=O)n(C)c1=O,"inconclusive: 14.1 µM [activator, single point]"
23,CC1(C)CC2(CC(c3ccccc3F)c3cc(Cl)c(O)cc3O2)NC(=S)N1 (stereo not drawn),inactive
24,Cc1[nH]c(C)c(C(=O)/C=C/c2ccc([N+](=O)[O-])cc2)c1C,inactive
25,CCC(=O)Oc1ccc2c(=O)c(-c3ccc4ccccc4n3)c(CC)oc2c1C,"inconclusive: 28.2 µM [activator, single point]"

# Entries shown so far that have a nitro group on carbon, in the order listed:
row,Structure (SMILES),Potency
15,Cc1onc(-c2ccccc2)c1C(=O)N/N=C/c1ccc([N+](=O)[O-])s1,active: 11.2 µM
23,O=[N+]([O-])c1ccc(/C=N/Nc2ccccn2)cc1,inactive
19,O=C(O)/C=C/c1ccc([N+](=O)[O-])o1,inactive
24,Cc1[nH]c(C)c(C(=O)/C=C/c2ccc([N+](=O)[O-])cc2)c1C,inactive

# Remaining list, next part

row,Structure (SMILES),Potency
1,Cc1ccc(C(=O)OCC(=O)c2ccc[nH]2)s1,"inconclusive: 8.91 µM [activator, partial curve]"
2,Cc1ccc(SCCN2CCN(Cc3ccccc3)CC2)cc1,"inconclusive: 15.8 µM [activator, partial curve]"
3,CCOc1cc2[nH]c(=O)n(CCCCC(=O)N3CCCCCC3)c(=O)c2cc1OCC,inactive
4,O=C(COc1ccc2ccc(=O)oc2c1)c1ccccc1,"inconclusive: 11.2 µM [activator, partial curve]"
5,Cc1ccc(CN2C(=O)c3ccccc3NC2c2ccccn2)cc1 (stereo not drawn),inactive
6,CC1CCCCC1NC(=O)c1cc2c(=O)n3ccccc3nc2n1C (stereo not drawn),"inconclusive: 12.6 µM [activator, partial curve]"
7,Cc1[nH]n(C(N)=S)c(=O)c1N=Nc1ccccc1C(F)(F)F,"inconclusive: 31.6 µM [activator, single point]"
8,CC1CN(S(=O)(=O)c2cc(C(=O)N(CCc3ccccc3)Cc3ccccc3)ccc2Cl)CC(C)O1 (stereo not drawn),inactive
9,CN(c1cccc(Cl)c1)S(=O)(=O)c1cccc(C(=O)Nc2nc3ccccc3[nH]2)c1,"inconclusive: 17.8 µM [activator, single point]"
10,O=C(NC1CCCCC1)NC1(C(=O)NCCCN2CCOCC2)CCCCC1,"inconclusive: 6.31 µM [activator, single point]"
11,COc1cccc2cc(-c3ccnc(=S)[nH]3)oc12,"inconclusive: 17.8 µM [activator, partial curve]"
12,COc1cc(F)c(C2=CC(=O)C[C@H](c3ccc(Cl)cc3)C2)cc1F,"inconclusive: 35.5 µM [activator, single point]"
13,CN(C(=O)COc1cc(=O)n(C)c2ccccc12)c1cccc(Cl)c1,"inconclusive: 3.16 µM [activator, single point]"
14,CC(C)CCNC(=O)[C@H](CSCc1ccccc1)N1Cc2ccccc2C1=O,"inconclusive: 25.1 µM [activator, single point]"
15,CN(C)S(=O)(=O)c1ccc(Cl)c(C(=O)Nc2nc3ccccc3[nH]2)c1,inactive
16,Cc1ccc(C(O)CN2C3=NCCCN3c3ccccc32)cc1 (stereo not drawn),inactive
17,Cc1ccc(S(=O)(=O)N2CCCN(C)c3nc4ccccc4nc32)cc1,inactive
18,O=C1COc2ccc(C(=O)CSc3ccc(Br)cc3)cc2N1,"inconclusive: 17.8 µM [activator, partial curve]"
19,CCN(CC)C(=O)Sc1cccc2cccnc12,inactive
20,Cc1ccc(O)c(C(=O)c2cnc3onc(-c4ccc(F)cc4)c3c2)c1,"inconclusive: 31.6 µM [activator, single point]"
21,CCOC(=O)c1oc2nc(C)c3c(c2c1N)CC(C)(C)OC3,inactive
22,CCOC(=O)c1sc(NC(=O)CN2CCN(c3ccc(OC)cc3)CC2)nc1C,inactive
23,Cc1nc2ccc(NC(=O)c3cccc(S(=O)(=O)N(C)c4ccccc4)c3)cc2s1,"inconclusive: 35.5 µM [activator, single point]"
